PubChem BioAssay AID1671190 (National Center for Advancing Translational Sciences (NCATS), 2021)
“And” between values parts separate entries of the source, which are not always exact repeats. Equal entries are not always repeated. Hit rate of the full screen: of about 580,000 compounds, about 6,100 (1.1%) were called active. The shares of active, inactive and inconclusive entries below differ from those in the screen. The call rests on the fitted dose curve; in most records, active means well fitted inhibition curve with a large enough effect; inconclusive means small, poorly fitted or top-dose-only effect, or another doubt; inactive means no such curve, though single readings can be large or run the other way. Where the call is inconclusive, the potency comes from a doubtful curve fit.

Sequences of proteins named here, by UniProt entry; tags and fusion partners are left off. A change or cut given only in a name is not applied to a line headed by its entry.
UniProt P18054: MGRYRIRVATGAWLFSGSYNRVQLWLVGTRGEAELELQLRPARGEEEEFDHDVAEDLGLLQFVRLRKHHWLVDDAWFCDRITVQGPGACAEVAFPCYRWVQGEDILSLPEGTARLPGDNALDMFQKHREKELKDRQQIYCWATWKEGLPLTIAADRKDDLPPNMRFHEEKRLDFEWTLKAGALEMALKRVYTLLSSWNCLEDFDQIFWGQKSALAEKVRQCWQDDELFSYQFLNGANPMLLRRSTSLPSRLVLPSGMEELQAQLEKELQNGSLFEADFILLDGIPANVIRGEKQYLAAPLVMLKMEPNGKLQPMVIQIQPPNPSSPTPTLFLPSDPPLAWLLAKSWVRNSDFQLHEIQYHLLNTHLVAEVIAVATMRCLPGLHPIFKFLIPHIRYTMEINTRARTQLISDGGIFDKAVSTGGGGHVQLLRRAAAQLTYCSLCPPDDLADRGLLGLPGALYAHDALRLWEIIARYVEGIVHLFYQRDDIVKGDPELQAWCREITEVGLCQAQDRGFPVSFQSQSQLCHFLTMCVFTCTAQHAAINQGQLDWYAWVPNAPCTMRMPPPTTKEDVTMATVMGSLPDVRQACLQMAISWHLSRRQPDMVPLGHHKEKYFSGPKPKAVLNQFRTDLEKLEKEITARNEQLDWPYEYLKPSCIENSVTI

molecular target: Polyunsaturated fatty acid lipoxygenase ALOX12 (Homo sapiens) (UniProt P18054); assay: Primary qHTS assay for inhibitors of human arachidonate 12S-lipoxygenase (ALOX12): Round 2; conditions: purified 12hLO, xylenol orange hydroperoxide absorbance; series mostly up to 108 µM
Outline: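 Hydroperoxide product was detected by ferrous iron/xylenol orange as the 573 to 405 nm absorbance ratio. Arachidonic acid at 40 uM (final) was turned over for 30 min at room temperature by 150 nM human 12hLO, pH 7.0 Hepes buffer, after 15 min compound preincubation.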
Potency means the concentration at half of the fitted maximal effect.

| SMILES | Potency |
| --- | --- |
| O=C(Cc1cccn1-c1ccc(Cl)cc1)NC1CCCC1 | inconclusive: 89.1 µM [inhibitor, single point] |
| NC(CSS(=O)(=O)O)=NCCC12CC3CC(CC(O)(C3)C1)C2 | inactive |
| COc1ccc(S(=O)(=O)N2CCCCCC2)cc1C(=O)NCCOc1ccc(C)cc1 | inactive |
| CCOc1ccc(-c2[nH]ncc2-c2ccc(Br)cc2)c(O)c1 | active: 28.2 µM |
| O=C(O)C1=C[C@H](c2ccc(Br)cc2)C[C@H](OCCCCO)O1 | active: 35.5 µM |
| COc1cc2c(cc1OC)CN(c1ccc3ccccc3n1)CC2 | inconclusive: 126 µM [inhibitor, partial curve, poor fit] |
| O=C(C1CCCCC1)N1CCC2(CC1)CC(N(Cc1ccc(F)cc1)C1CC1)CCO2 (stereo unspecified) | inactive |
| Cc1csc(C(C#N)C(=O)c2ccncc2)n1 (stereo unspecified) | inconclusive: 35.5 µM [inhibitor, partial curve, poor fit] |
| O=S(=O)(NCc1ccc2c(c1)OCO2)c1ccc(Cl)s1 | inconclusive: 79.4 µM [inhibitor, partial curve, poor fit] |
| CCN1C(=O)/C(=C\c2ccc(-c3cccc(C(=O)OC)c3)o2)SC1=Nc1ccc(C(=O)O)cc1 | active: 50.1 µM |
| Cc1ccc(N/N=C(\C#N)C(=O)c2ccsc2)cc1 | inactive |
| CN(Cc1nc2ccccc2s1)C(=O)c1cccc(S(=O)(=O)Nc2ccccc2F)c1 | inconclusive: 39.8 µM [inhibitor, partial curve, poor fit] |
| CCNC(=S)N/N=C(/C)c1ccccc1Br | inconclusive: 44.7 µM [inhibitor, partial curve, poor fit] |
| Cc1ccc(/C=N/n2c(-c3cccs3)n[nH]c2=S)cc1 | inconclusive: 44.7 µM [inhibitor, single point] |
| CCOC(=O)[C@]12CCC=C1N(Cc1ccc3c(c1)OCO3)C(=O)[C@H](CC(=O)NCc1ccc(C)o1)C2 | inconclusive: 31.6 µM [inhibitor, partial curve] |
| COc1cc(Br)cc(CN2CCN(c3ncccn3)CC2)c1O | inconclusive: 31.6 µM [inhibitor, partial curve, poor fit] |
| N#CC1=C(N)Oc2cc(O)ccc2C1c1cccs1 (stereo unspecified) | inconclusive: 35.5 µM [inhibitor, partial curve, poor fit] |
| Cc1noc(C)c1CCC(=O)N1Cc2[nH]cnc2CC1C(=O)O (stereo unspecified) | inconclusive: 31.6 µM [inhibitor, partial curve] |
| O=C1/C(=C\c2ccco2)SC(=S)N1C1CCS(=O)(=O)C1 (stereo unspecified) | inconclusive: 44.7 µM [inhibitor, partial curve, poor fit] |
| Clc1cccc(-c2nc3ccc(Br)cn3c2Cc2ccsc2)c1 | inconclusive: 17.8 µM [inhibitor, full curve] |
| Cc1ccc(C(c2cccc(Br)c2)c2cn(C)c3ccccc23)s1 (stereo unspecified) | inconclusive: 20 µM [inhibitor, partial curve, poor fit] |
| O=C(NCC1CCOCC1)Nc1cc(F)cc(F)c1 | inactive |

| SMILES | Potency |
| --- | --- |
| O=C(c1ccco1)N1CCCC(c2nc3c(nnn3Cc3ccc(Cl)cc3Cl)c(=O)[nH]2)C1 (stereo unspecified) | inconclusive: 100 µM [inhibitor, single point] |
| COc1ccc2c(c1)CCC/C2=N\O | inactive |
| CN(C)C[C@@H]1CN(Cc2cccnc2)C[C@H]1NC(=O)C1CC=CC1 | inactive |
| S=C(NCCC(c1ccccc1)c1ccccc1)Nc1ccc(Nc2ccccc2)cc1 | inconclusive: 35.5 µM [inhibitor, partial curve, poor fit] |
| O=C(O)CNS(=O)(=O)c1ccc2c(c1)CCC2 | inconclusive: 5.01 µM [inhibitor, full curve] |
| COc1ccccc1/C=C1/C(=O)N(c2ccc([N+](=O)[O-])cc2)N=C1C | inconclusive: 89.1 µM [inhibitor, partial curve, poor fit] |
| O=c1c2ccccc2c(-c2ccccc2)nn1Cc1nc(-c2ccc(Br)cc2)no1 | inactive |
| O=C(O)/C(=C\c1ccc(OCc2ccccc2)cc1)NC(=O)c1ccccc1 | inconclusive: 112 µM [inhibitor, single point] |
| O=C(N[C@H]1CCN2C(=O)c3cc(-c4ccc(Cl)cc4)ccc3NC(=O)[C@H]12)c1cnccn1 | inconclusive: 70.8 µM [inhibitor, single point] |
| N/C(=N\C(=S)Nc1ccc2c(c1)OCO2)c1ccccc1 | inconclusive: 63.1 µM [inhibitor, partial curve, poor fit] |
| N#Cc1sc2nc(-c3cccs3)cc(-c3ccc(Cl)cc3)c2c1N | inconclusive: 1.78 µM [inhibitor, full curve] |
| CCN(CC)S(=O)(=O)c1ccc(C(=O)NNC2=NS(=O)(=O)c3ccccc32)cc1 | inconclusive: 15.8 µM [inhibitor, partial curve, poor fit] |
| COCCn1nnnc1C(c1cccs1)N1CCN(c2nc3ccccc3s2)CC1 (stereo unspecified) | inactive |
| C[C@@H]1CN([C@H](C)CO)C(=O)c2cc(/C=C/c3ccccc3)cnc2O[C@H]1CN(C)C(=O)NC1CCCCC1 | inactive |
| Cc1ccc(S(=O)(=O)N2C[C@H]3C(=O)C[C@@H](c4ccccc4)N(S(C)(=O)=O)[C@H]3C[C@H]2c2ccccc2)cc1 | inconclusive: 0.224 µM [inhibitor, full curve, poor fit] |
| Cc1ccccc1-c1nccn2c(C3CN(Cc4ccc(O)cc4)C3)ncc12 | inactive |
| Cc1c(Cl)cccc1NC(=S)NCC1COc2ccccc2O1 (stereo unspecified) | inconclusive: 39.8 µM [inhibitor, partial curve, poor fit] |
| O=C(O)c1ccc(N/N=C/c2ccc(-c3ccc(Br)cc3)o2)cc1 | inconclusive: 63.1 µM [inhibitor, partial curve, poor fit] |
| O=C(CNC(=O)c1ccc2c(c1)S(=O)(=O)N=C1CCCCCN12)Nc1ccc(F)c(F)c1 | inconclusive: 50.1 µM [inhibitor, partial curve, poor fit] |
| COCCNC(=S)N(c1ccccc1)C(C)C | inactive |
| C=CCCN(Cc1ccccc1)S(=O)(=O)c1cc(Br)ccc1Br | inactive |
| CCN(CC)c1ccc(C(=O)N2CCN(Cc3ccccc3)CC2)cc1 | inactive |

| SMILES | Potency |
| --- | --- |
| CCOc1ccc(N/C=C/C(=O)c2ccc(C)cc2)cc1 | inconclusive: 35.5 µM [inhibitor, partial curve, poor fit] |
| O=S1(=O)C[C@@H]2N=C(N/N=C/c3ccccc3)S[C@@H]2C1 | inconclusive: 7.94 µM [inhibitor, full curve, poor fit] |
| O=C(NCc1ccc(N2CCOCC2)cc1)C1CCN(c2cnc3nccnc3c2)CC1 | inconclusive: 31.6 µM [inhibitor, partial curve] |
| C=CCOc1c(Br)cc(C2NC(=O)NC(C)=C2C(C)=O)cc1OCC (stereo unspecified) | inconclusive: 0.0891 µM [inhibitor, full curve, poor fit] |
| O=C1OCCC1=COCCOC=C1CCOC1=O | inconclusive: 39.8 µM [inhibitor, partial curve, poor fit] |
| Cc1nc2cccnc2n1CC1CCCN(S(=O)(=O)c2cc(F)cc(F)c2)C1 (stereo unspecified) | inactive |
| O=C(C[C@@H]1CCNC[C@@H]1Cc1cc(-c2ccc(F)cc2)on1)NCc1ccc(F)cc1 | inconclusive: 100 µM [inhibitor, partial curve, poor fit] |
| CCOC(=O)c1ccc(N2C(=O)c3cccc4c(C(=O)O)ccc(c34)C2=O)cc1 | active: 15.8 µM |
| N#CCCn1c(=O)cnc2cnc(Oc3ccccc3)nc21 | inconclusive: 100 µM [inhibitor, single point] |
| C[C@]12CC[C@H]3C(=CCc4cc(O)ccc43)[C@@H]1CCC2=O | inconclusive: 126 µM [inhibitor, partial curve, poor fit] and inconclusive: 70.8 µM [inhibitor, partial curve, poor fit] |
| CCc1nc2ccc(C(=O)NCc3ccccc3OC)cn2c1N(C=O)CCC(C)C | inactive |
| COC[C@H]1CCCN1Cc1nc(C2(O)CCN(Cc3ccc(F)cc3)CC2)cs1 | inconclusive: 100 µM [inhibitor, partial curve, poor fit] |
| CCOC(=O)NCc1ccc2c(c1)cc(C)n2C | inactive |
| Cc1cnc(C(=O)N2CCC(c3noc(-c4ccncc4)n3)C2)cn1 (stereo unspecified) | inconclusive: 79.4 µM [inhibitor, partial curve, poor fit] |
| O=C(Nc1ccc2c(c1)OCO2)c1ccc(Cl)s1 | inconclusive: 50.1 µM [inhibitor, partial curve, poor fit] |
| COc1ccc(CCNC(=O)CSc2nc3c(sc(=S)n3-c3ccccc3)c(=O)[nH]2)cc1OC | inconclusive: 4.47 µM [inhibitor, full curve] |
| Clc1ccc2c3c([nH]c2c1Cl)CCC3 | inconclusive: 25.1 µM [inhibitor, single point] |
| O=C(c1ccc2c(c1)N(Cc1ccc(Cl)cc1)C(=O)c1ccccc1S2=O)N1CCN(c2ccccc2F)CC1 (stereo unspecified) | inconclusive: 28.2 µM [inhibitor, full curve, poor fit] |
| O=C(NC(=S)NC1CCC(O)CC1)c1ccco1 (stereo unspecified) | inconclusive: 44.7 µM [inhibitor, partial curve, poor fit] |
| CCc1noc(-c2cn(C3CCCN(C(=O)COc4cccc(C)c4)C3)nn2)n1 (stereo unspecified) | inactive |
| Cc1nn(CCC(=O)N[C@H]2CC[C@H]2NC2CCCCC2)c(C)c1C | inconclusive: 35.5 µM [inhibitor, single point] |
| CCc1ccc(C(=O)COC(=O)C2=NN(c3ccccc3)C(=O)CC2)cc1 | inconclusive: 100 µM [inhibitor, single point] |

Ordered by molar mass (ascending): some entries from above

| SMILES | Potency |
| --- | --- |
| Cc1csc(C(C#N)C(=O)c2ccncc2)n1 (stereo unspecified) | inconclusive: 35.5 µM [inhibitor, partial curve, poor fit] |
| C[C@]12CC[C@H]3C(=CCc4cc(O)ccc43)[C@@H]1CCC2=O | inconclusive: 126 µM [inhibitor, partial curve, poor fit] and inconclusive: 70.8 µM [inhibitor, partial curve, poor fit] |
| Clc1cccc(-c2nc3ccc(Br)cn3c2Cc2ccsc2)c1 | inconclusive: 17.8 µM [inhibitor, full curve] |
| C=CCCN(Cc1ccccc1)S(=O)(=O)c1cc(Br)ccc1Br | inactive |
